Measured values taken from paper doi:10.1101/2020.04.20.050328.
These are yes or no findings as the source states them, for the method shown. In cells and extracts the contact can be indirect. Some results given as binding are weak or reduced against the parent protein; the word gives no strength.

Amino acid sequences for entries named in this document (tags omitted).
UniProt Q9Y230: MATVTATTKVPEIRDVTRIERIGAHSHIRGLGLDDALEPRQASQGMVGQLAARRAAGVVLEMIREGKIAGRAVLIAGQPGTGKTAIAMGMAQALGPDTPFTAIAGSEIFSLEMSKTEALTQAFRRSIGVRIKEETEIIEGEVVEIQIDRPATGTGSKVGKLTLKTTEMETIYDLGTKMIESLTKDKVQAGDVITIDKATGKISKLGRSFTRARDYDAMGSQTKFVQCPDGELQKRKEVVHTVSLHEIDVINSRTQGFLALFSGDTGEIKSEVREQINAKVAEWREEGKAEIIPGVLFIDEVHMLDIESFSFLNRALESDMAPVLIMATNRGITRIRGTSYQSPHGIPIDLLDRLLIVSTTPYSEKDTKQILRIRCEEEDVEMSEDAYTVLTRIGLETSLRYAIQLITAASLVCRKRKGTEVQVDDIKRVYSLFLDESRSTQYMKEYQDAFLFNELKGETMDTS
UniProt Q02248: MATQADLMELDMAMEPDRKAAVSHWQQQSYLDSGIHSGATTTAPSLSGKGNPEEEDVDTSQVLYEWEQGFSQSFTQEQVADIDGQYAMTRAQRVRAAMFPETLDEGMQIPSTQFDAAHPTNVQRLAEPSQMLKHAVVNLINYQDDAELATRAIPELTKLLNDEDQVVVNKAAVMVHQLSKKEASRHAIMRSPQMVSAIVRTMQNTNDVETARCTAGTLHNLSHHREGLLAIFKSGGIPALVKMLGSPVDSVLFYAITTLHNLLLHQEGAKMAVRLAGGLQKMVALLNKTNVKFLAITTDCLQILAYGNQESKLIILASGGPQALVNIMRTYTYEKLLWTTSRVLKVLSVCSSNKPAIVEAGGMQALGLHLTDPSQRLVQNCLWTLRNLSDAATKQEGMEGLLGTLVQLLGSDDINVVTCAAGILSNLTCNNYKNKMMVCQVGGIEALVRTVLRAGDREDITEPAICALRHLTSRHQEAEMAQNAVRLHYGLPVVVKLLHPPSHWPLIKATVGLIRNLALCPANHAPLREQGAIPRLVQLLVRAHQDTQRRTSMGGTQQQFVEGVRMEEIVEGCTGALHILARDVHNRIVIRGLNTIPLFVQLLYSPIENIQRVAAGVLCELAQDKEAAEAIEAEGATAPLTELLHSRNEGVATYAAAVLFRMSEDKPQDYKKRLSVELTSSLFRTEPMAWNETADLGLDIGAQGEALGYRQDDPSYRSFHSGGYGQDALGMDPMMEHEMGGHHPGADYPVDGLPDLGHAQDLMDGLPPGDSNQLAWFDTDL
UniProt Q16665: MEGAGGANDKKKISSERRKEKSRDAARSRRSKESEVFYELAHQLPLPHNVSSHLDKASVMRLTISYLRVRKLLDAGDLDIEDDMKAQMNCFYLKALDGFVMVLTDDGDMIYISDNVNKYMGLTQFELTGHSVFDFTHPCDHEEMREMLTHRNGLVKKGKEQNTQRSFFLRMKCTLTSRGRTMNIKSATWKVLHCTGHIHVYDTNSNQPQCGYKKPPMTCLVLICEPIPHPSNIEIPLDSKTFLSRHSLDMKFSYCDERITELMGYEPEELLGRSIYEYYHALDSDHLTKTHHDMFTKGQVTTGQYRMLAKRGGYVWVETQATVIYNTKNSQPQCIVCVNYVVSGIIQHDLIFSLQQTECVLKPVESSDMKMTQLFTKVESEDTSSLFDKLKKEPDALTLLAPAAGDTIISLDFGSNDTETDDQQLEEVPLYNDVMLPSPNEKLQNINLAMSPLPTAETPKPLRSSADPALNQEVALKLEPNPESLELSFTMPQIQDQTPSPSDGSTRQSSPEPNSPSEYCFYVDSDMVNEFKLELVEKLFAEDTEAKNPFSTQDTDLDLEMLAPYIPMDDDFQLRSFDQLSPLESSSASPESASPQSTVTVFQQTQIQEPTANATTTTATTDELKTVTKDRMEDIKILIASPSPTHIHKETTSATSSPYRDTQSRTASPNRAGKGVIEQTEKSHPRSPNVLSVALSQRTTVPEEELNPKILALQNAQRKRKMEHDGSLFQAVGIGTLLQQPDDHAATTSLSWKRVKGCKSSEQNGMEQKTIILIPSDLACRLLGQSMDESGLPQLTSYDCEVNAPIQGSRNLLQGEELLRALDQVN
UniProt Q9WTM5: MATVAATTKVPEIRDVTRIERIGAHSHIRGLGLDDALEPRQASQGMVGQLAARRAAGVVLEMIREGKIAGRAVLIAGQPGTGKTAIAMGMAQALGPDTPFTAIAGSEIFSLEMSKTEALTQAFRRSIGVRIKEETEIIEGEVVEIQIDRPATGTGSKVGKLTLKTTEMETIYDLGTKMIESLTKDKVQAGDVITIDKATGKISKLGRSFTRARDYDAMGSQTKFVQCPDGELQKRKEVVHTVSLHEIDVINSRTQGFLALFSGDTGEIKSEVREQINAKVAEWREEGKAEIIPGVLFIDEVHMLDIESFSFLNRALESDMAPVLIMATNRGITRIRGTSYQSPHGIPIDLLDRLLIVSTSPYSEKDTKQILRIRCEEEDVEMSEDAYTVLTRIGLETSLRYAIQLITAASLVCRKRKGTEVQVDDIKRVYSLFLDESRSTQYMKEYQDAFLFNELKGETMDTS
UniProt P35222: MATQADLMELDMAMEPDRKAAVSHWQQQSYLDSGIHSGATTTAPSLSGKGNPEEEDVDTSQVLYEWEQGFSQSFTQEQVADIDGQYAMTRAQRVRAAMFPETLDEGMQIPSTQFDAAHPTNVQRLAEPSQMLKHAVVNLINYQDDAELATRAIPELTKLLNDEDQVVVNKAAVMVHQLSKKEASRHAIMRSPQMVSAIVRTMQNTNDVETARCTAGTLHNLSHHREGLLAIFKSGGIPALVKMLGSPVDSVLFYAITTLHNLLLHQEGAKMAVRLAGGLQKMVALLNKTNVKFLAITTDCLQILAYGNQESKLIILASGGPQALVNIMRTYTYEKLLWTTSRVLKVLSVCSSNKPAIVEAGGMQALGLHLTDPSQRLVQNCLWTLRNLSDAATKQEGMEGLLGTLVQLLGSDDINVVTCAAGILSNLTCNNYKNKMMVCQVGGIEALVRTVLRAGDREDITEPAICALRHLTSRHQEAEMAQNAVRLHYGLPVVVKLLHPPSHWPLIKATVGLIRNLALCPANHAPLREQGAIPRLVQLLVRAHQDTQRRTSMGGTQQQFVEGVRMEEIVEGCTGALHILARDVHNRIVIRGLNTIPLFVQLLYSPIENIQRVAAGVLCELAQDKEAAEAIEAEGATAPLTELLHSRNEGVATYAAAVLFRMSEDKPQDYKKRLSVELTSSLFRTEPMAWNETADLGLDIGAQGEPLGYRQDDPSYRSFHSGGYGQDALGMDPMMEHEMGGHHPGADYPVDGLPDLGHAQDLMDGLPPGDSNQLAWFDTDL

Key:
[1] = target: RUVBL2 (human (endogenous in A549)) (UniProt Q9Y230); experiment: co-IP
[2] = target: β-catenin (mouse, in tumor-propagating cells) (mouse (endogenous in KP tumor-propagating cells)) (UniProt Q02248); experiment: proximity ligation

Substance	binding [1]	binding [2]
HIF1-α (from UniProt Q16665 1-826)	binds	
RUVBL2 (mouse, in tumor-propagating cells) (from UniProt Q9WTM5 1-463)		binds
β-catenin (from UniProt P35222 1-781)	binds	
